Measured values from article PMC8100127.
Construct, isoform or probe ends are uncertain for at least one entry. For some of these results: Protein sequences can lack the tags named with them.

The chains behind the UniProt entries cited, without tags or fusion partners. Residues count along the entry.
UniProt P16422, 24-265: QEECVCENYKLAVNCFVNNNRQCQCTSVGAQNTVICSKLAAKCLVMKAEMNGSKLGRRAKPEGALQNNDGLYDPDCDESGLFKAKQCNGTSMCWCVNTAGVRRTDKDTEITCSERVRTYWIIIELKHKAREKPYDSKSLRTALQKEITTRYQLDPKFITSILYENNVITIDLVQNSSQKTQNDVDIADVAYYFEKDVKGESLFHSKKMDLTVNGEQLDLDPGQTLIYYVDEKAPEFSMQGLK

Legend:
Experiment in all cases: binding assay
Details in all cases: No purified-protein binding assay in this paper (Kd values cited). TAS on plasma EVs: 0.1 uM Cy5-aptamer, 1x PBS, 2 mM MgCl2, 25 C, 2 h; label: Cy5; single-stranded DNA
EpCAM = EpCAM (UniProt P16422)
HER2 = HER2 (UniProt P04626)
EGFR = EGFR (UniProt P00533)
CEA = target: T1, CEA (UniProt P06731)
T1 sequence (looked up, limits assumed): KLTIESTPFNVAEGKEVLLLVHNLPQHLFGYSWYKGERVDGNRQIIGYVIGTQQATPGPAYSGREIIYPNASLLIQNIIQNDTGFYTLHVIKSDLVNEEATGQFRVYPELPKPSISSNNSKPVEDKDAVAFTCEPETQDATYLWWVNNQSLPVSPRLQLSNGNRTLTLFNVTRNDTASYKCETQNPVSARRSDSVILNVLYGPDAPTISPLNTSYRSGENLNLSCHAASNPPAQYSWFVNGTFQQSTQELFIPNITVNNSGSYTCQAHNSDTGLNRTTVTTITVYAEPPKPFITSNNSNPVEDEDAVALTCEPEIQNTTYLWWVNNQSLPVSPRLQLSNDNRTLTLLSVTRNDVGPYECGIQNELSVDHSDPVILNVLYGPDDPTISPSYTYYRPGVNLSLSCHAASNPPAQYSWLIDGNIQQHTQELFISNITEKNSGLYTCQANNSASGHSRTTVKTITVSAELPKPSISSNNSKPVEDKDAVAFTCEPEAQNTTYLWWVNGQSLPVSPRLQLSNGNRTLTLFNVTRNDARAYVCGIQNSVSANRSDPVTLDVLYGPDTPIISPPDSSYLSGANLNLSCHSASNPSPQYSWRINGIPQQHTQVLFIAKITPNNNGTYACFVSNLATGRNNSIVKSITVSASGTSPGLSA

CACTACAGAGGTTGCGTCTGTCCCACGTTGTCATGGGGGGTTGGCCTG [EpCAM aptamer]
Kd (EpCAM): 22.8 nM

GGGCCGTCGAACACGAGCATGGTGCGTGGACCTAGGATGACCTGAGTACTGTCC [HER2 aptamer]
Kd (HER2): 270 nM

TACCAGTGCGATGCTCAGTGCCGTTTCTTCTCTTTCGCTTTTTTTGCTTTTGAGCATGCTGACGCATTCGGTTGAC [EGFR aptamer]
Kd (EGFR): 56 nM

TTAACTTATTCGACCATA [CEA aptamer]
Kd (CEA): 5 nM
